{"sequences": {"note": "Protein sequences, listed by entry. Tags and fused reporters are not part of them. Residues count along the entry.", "UniProt P18239": "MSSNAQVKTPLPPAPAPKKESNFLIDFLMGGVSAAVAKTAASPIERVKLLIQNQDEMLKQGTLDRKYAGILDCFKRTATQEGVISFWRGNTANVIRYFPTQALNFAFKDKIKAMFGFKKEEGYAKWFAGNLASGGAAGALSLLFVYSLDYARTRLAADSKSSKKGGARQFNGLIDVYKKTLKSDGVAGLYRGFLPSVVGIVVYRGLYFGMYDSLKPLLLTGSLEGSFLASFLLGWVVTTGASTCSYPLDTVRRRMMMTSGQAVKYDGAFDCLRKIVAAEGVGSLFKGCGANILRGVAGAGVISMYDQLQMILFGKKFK", "UniProt P40341": "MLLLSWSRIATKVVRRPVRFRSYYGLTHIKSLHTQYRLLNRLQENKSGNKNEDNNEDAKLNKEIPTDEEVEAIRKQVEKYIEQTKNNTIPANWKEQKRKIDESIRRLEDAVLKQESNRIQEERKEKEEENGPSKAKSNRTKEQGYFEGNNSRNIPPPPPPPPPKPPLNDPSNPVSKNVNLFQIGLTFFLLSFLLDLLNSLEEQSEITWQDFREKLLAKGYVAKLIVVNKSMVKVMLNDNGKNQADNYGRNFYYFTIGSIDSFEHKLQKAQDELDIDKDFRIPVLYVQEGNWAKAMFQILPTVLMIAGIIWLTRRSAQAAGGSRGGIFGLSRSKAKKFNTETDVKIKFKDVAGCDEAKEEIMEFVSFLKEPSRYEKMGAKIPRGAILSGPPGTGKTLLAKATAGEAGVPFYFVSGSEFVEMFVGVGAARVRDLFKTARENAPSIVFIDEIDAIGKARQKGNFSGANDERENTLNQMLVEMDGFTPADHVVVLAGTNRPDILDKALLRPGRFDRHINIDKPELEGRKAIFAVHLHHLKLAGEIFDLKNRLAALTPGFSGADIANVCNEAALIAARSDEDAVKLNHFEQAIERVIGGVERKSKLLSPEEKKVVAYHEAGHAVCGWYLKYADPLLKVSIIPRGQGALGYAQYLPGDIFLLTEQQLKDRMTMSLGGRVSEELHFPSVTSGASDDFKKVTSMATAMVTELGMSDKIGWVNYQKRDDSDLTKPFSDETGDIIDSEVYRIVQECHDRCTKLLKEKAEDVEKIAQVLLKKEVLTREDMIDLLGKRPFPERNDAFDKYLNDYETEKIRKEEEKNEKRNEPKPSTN", "UniProt P0CS90, residues 24-654": "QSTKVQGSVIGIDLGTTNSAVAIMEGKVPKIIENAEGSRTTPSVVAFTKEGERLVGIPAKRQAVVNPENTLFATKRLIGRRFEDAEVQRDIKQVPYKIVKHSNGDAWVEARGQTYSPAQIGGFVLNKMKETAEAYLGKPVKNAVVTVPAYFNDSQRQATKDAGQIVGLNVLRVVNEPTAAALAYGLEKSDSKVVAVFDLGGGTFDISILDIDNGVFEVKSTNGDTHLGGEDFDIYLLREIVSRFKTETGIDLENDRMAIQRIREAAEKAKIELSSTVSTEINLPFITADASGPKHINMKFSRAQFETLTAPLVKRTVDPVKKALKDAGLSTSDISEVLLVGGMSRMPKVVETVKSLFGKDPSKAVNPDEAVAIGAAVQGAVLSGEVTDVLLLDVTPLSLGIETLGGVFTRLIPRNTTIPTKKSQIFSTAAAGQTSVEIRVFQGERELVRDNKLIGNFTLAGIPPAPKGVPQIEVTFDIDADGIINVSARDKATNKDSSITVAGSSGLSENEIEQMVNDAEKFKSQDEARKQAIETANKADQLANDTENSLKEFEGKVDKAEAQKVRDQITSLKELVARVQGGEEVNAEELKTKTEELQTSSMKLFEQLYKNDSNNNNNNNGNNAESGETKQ", "UniProt P18238": "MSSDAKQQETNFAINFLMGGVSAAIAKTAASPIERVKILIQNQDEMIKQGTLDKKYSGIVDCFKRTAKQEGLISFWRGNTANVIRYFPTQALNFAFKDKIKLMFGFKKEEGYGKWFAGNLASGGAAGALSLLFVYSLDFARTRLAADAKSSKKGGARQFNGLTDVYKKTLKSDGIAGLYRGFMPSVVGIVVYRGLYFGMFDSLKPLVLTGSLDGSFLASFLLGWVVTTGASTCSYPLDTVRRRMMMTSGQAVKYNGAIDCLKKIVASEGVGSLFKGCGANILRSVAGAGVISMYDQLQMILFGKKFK", "UniProt P39925": "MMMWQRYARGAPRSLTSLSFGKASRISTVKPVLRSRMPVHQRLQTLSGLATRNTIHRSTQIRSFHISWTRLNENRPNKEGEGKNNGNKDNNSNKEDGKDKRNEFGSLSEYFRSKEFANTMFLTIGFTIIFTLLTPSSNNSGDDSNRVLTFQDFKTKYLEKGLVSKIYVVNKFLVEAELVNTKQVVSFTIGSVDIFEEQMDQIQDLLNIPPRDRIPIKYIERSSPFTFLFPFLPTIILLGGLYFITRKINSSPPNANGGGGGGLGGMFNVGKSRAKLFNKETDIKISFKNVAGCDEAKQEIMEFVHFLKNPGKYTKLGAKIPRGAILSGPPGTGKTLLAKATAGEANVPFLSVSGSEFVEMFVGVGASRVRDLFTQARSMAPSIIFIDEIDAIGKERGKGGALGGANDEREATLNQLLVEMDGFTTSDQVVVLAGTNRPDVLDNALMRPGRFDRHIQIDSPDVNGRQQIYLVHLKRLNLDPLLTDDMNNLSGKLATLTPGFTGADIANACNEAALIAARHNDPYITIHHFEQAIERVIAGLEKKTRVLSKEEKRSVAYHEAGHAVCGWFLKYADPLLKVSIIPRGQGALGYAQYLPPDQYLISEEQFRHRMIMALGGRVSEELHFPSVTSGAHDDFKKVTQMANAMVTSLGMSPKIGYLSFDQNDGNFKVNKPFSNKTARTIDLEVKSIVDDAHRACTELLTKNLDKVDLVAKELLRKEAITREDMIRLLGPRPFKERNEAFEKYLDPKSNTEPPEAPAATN", "UniProt P07251, residues 36-545": "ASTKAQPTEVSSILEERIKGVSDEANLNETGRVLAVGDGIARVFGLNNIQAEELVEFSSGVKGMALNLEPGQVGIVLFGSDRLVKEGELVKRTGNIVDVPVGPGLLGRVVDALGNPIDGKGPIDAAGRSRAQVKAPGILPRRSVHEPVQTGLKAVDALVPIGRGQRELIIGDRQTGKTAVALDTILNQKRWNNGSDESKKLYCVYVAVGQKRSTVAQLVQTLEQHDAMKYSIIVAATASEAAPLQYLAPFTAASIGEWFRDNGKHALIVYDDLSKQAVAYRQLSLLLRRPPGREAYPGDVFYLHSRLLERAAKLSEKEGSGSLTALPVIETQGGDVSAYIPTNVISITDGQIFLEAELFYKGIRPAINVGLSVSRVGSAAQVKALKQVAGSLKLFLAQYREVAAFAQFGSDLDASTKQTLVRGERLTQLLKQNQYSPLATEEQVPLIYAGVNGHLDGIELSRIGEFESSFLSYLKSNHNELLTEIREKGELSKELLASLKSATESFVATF", "UniProt P00830, residues 34-511": "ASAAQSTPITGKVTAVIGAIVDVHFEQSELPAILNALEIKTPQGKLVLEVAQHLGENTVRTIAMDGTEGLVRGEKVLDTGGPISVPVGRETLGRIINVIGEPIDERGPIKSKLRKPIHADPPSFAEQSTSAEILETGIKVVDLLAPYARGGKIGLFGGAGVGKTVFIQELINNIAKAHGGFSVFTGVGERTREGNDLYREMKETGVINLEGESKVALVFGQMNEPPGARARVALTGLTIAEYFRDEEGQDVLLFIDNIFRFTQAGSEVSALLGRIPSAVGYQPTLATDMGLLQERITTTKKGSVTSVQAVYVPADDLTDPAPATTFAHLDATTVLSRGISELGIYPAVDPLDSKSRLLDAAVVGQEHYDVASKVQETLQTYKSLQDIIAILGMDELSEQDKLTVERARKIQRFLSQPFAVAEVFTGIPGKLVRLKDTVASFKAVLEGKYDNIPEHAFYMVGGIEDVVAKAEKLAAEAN", "UniProt P00044": "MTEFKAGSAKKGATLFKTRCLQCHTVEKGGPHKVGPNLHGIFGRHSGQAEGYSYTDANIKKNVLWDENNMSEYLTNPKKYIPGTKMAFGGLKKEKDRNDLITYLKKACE"}, "source": "paper PMC7124466", "assay_in_all_cases": "cross-linking; intact purified yeast mitochondria (5 mg/ml, isotonic buffer: 250 mM sucrose, 1 mM EDTA, 10 mM MOPS-KOH, pH 7.2) crosslinked in organello with 2 mM CBDPS-H8/D8, 21 °C 10 min then on ice 110 min; Lys-Lys inter-protein crosslinked peptides enriched (SCX, avidin) and identified by LC-MS/MS, FDR 2%", "key": {"[1]": {"molecular_target": "PET9 (yeast (endogenous in mitochondria of strain YPH499)) (UniProt P18239)"}, "[2]": {"molecular_target": "YTA12 (yeast (endogenous in mitochondria of strain YPH499)) (UniProt P40341)"}, "[3]": {"molecular_target": "SSC1 (yeast (endogenous in mitochondria of strain YPH499)) (UniProt P0CS90)"}, "[4]": {"molecular_target": "T1, ATP4 (yeast (endogenous in mitochondria of strain YPH499)) (UniProt P05626)", "T1 sequence": "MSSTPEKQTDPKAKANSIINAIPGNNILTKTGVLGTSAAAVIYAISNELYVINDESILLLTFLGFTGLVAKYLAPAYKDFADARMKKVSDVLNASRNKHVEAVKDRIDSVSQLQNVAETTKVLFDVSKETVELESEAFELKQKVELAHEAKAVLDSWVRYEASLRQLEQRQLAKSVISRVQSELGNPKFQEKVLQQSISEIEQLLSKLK"}, "[5]": {"molecular_target": "T2, ATP5 (yeast (endogenous in mitochondria of strain YPH499)) (UniProt P09457)", "T2 sequence": "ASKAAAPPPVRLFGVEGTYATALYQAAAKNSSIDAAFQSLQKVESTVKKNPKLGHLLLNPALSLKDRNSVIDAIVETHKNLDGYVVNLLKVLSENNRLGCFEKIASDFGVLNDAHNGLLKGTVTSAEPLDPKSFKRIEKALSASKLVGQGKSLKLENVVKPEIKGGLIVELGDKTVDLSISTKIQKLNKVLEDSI"}, "[6]": {"molecular_target": "T3, OM45 (yeast (endogenous in mitochondria of strain YPH499)) (UniProt P16547)", "T3 sequence": "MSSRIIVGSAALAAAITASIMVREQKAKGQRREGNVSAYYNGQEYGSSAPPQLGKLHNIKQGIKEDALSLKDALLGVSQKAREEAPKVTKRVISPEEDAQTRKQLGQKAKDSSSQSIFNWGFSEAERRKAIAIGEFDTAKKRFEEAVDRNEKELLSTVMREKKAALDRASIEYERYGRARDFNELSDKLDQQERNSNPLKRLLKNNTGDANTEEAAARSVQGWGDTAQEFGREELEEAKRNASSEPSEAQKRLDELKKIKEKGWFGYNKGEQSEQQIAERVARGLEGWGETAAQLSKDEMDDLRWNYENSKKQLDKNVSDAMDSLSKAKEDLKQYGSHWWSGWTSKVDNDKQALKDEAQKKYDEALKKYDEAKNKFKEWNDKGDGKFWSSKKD"}}, "note": "No constants are given. Whether binding was seen depends on the method and setting. Binding seen in cells or lysates may run through a third protein. Some binding calls cover weakened binding; strength is not graded here."}
{"substance": "AAC3 (from UniProt P18238 1-307)", "values": [{"measurement": "binding", "setting": "[1]", "value": "binds"}]}
{"substance": "AFG3 (from UniProt P39925 1-761)", "values": [{"measurement": "binding", "setting": "[2]", "value": "binds"}]}
{"substance": "ATP1 (from UniProt P07251 36-545)", "values": [{"measurement": "binding", "setting": "[3]", "value": "binds"}]}
{"substance": "ATP2 (from UniProt P00830 34-511)", "values": [{"measurement": "binding", "setting": "[4]", "value": "binds"}, {"measurement": "binding", "setting": "[5]", "value": "binds"}]}
{"substance": "CYC1 (from UniProt P00044 1-109)", "values": [{"measurement": "binding", "setting": "[6]", "value": "binds"}]}
